Test system: K562 cells
Assay: In situ ultra violet irradiation of dosed K562 cells, IC50
Assay type: cell-based, human
Conditions: read-out: IC50 originally (before ultraviolet light)
Method: Previously, the isomerisation study had been performed ex situ, i.e. in a photochemical reactor. However, it was necessary to illustrate the potential of the process as a real therapy by repeating the isomerization in the presence of the caner cells i.e. in situ. […] Following irradiation, the cells were incubated in the normal way and the IC50 values were determined.
These consisted of i) exposing K562 cells only (i.e. cells which were not dosed with any potential drug candidate) to ultra violet light, ii) preventing K562 cells dosed with drug candidate from being exposed to ultra violet light, and iii) preventing K562 cells only (i.e. cells which were not dosed with any potential drug candidate) from being exposed to ultra violet light. […]

`COc1ccc(/C=C/c2cc(OC)c(OC)c(OC)c2)cc1O` [trans-CA-4, trans-combretastatin A-4] gave an IC50 of 5 µM.

From US7220784B2, “Substituted stilbenes and their reactions” (priority 2000, dated 2007)
